Laboratory results reported in patent publication US7314747.
Results are given in words; binding and its absence hold for the method and conditions named. Some results given as binding are weak or reduced against the parent protein; the word gives no strength. For part of these data: Where a sequence is shown, tags or fusion partners need not be part of it.

By UniProt entry, the sequences of proteins in these tests, tags left out. Where a name states a change or a piece, a line headed by the entry shows the natural chain unless it says otherwise.
UniProt Q9Y618: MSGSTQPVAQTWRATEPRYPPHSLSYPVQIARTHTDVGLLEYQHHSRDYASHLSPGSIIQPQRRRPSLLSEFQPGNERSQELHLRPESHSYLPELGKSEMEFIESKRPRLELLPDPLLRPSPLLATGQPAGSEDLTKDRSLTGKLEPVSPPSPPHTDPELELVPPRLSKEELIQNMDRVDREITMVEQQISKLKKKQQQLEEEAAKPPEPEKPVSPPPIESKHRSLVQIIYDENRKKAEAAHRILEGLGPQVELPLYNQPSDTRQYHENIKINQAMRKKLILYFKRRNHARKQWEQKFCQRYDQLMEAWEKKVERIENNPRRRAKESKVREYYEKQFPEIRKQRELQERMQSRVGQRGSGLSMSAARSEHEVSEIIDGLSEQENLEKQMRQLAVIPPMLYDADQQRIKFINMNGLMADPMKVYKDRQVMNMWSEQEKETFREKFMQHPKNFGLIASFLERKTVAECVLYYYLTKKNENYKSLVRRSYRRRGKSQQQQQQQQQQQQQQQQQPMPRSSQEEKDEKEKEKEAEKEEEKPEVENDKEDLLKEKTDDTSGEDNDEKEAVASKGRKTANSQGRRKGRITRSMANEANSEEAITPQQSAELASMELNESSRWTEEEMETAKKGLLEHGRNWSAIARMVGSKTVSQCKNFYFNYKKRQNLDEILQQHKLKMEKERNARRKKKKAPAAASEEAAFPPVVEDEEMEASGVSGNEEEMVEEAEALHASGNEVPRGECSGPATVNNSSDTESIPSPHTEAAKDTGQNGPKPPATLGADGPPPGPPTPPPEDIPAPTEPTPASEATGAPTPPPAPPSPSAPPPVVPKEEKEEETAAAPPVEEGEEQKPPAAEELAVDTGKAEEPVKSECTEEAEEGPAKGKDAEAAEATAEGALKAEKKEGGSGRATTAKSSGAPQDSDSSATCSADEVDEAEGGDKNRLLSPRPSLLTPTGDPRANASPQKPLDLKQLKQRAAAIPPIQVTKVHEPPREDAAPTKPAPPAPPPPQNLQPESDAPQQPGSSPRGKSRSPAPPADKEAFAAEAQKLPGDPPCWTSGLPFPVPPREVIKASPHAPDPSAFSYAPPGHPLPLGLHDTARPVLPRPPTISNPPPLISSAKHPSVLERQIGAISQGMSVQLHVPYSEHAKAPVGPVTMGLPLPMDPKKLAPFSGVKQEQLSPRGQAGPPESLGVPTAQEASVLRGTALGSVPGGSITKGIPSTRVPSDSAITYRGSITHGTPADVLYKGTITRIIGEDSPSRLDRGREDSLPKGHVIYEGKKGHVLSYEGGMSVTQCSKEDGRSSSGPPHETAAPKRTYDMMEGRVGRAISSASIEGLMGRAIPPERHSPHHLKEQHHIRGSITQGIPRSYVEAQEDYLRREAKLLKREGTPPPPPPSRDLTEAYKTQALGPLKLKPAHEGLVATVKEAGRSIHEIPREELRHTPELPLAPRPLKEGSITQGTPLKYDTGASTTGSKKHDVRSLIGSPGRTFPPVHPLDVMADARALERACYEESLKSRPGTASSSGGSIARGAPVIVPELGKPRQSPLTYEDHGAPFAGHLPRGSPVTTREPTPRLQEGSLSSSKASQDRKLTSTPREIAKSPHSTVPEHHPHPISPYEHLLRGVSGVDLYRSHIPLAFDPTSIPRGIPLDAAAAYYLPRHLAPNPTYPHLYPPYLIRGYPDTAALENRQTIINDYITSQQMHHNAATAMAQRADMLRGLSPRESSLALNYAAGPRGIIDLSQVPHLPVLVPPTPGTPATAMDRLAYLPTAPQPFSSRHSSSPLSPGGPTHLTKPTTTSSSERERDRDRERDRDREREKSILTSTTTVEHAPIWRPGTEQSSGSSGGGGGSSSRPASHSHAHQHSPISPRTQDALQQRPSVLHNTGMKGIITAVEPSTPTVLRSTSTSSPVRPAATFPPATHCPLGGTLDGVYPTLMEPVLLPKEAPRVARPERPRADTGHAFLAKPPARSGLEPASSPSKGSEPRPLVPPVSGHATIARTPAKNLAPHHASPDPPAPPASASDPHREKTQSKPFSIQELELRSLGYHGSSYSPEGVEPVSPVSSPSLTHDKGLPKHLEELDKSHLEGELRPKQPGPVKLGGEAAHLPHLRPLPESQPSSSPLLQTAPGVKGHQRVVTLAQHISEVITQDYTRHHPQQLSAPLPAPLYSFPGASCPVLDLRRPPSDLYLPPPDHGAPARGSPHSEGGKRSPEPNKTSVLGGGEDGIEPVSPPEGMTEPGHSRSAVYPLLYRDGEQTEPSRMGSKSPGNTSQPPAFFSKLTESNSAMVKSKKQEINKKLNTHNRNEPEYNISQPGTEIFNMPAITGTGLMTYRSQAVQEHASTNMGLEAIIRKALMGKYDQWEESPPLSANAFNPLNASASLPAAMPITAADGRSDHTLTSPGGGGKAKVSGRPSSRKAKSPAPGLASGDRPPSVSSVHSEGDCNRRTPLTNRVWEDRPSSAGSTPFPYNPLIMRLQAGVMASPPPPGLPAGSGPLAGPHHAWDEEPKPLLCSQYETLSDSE

How the values were obtained:
[1] = target: SMRT, original yeast two-hybrid clone (C-SMRT, aa 981 to C-terminal end) (human) (UniProt Q9Y618); experiment: yeast two-hybrid, β-galactosidase, FIG. 7
[2] = target: Gal4-c-SMRT (aa 981 to C terminus) (human); experiment: mammalian two-hybrid in CV-1 cells (with VP16-USP)
[3] = target: Gal4-c-SMRT (aa 981 to C terminus) (human); experiment: mammalian two-hybrid in CV-1 cells (with VP16-USP), FIG. 6B

binding [1] | binding [2] | binding [3] | Binder
binds |  |  | pAS-EcR (Gal4-DBD fused to aa 223-878 of EcRB1) (protein, Drosophila, UniProt P34021 223-878, looked up, not shown: large carriers) SISSGRDDLSPSSSLNGYSANESCDAKKSKKGPAPRVQEELCLVCGDRASGYHYNALTCEGCKGFFRRSVTKSAVYCCKFGRACEMDMYMRRKCQECRLKKCLAVGMRPECVVPENQCAMKRREKKAQKEKDKMTTSPSSQHGGNGSLASGGGQDFVKKEILDLMTCEPPQHATIPLLPDEILAKCQARNIPSLTYNQLAVIYKLIWYQDGYEQPSEEDLRRIMSQPDENESQTDVSFRHITEITILTVQLIVEFAKGLPAFTKIPQEDQITLLKACSSEVMMLRMARRYDHSSDSIFFANNRSYTRDSYKMAGMADNIEDLLHFCRQMFSMKVDNVEYALLTAIVIFSDRPGLEKAQLVEAIQSYYIDTLRIYILNRHCGDSMSLVFYAKLLSILTELRTLGNQNAEMCFSLKLKNRKLPKFLEEIWDVHAIPPSVQSHLQITQEENERLERAERMRASVGGAITAGIDCDSASTSAAAAAAQHQPQPQPQPQPSSLTQNDSQHQTQPQLQPQLPPQLQGQLQPQLQPQLQTQLQPQIQPQPQLLPVSAPVPASVTAPGSLSAVSTSSEYMGGSAAIGPITPATTSSITAAVTASSTTSAVPMGNGVGVGVGVGGNVSMYANAQTAMALMGVALHSHQEQLIGGVAVKSEHSTTA
 | binds | binds | EcR (wild-type ecdysone receptor, EcRB1) (receptor) MKRRWSNNGGFMRLPEESSSEVTSSSNGLVLPSGVNMSPSSLDSHDYCDQDLWLCGNESGSFGGSNGHGLSQQQQSVITLAMHGCSSTLPAQTTIIPINGNANGNGGSTNGQYVPGATNLGALANGMLNGGFNGMQQQIQNGHGLINSTTPSTPTTPLHLQQNLGGAGGGGIGGMGILHHANGTPNGLIGVVGGGGGVGLGVGGGGVGGLGMQHTPRSDSVNSISSGRDDLSPSSSLNGYSANESCDAKKSKKGPAPRVQEELCLVCGDRASGYHYNALTCEGCKGFFRRSVTKSAVYCCKFGRACEMDMYMRRKCQECRLKKCLAVGMRPECVVPENQCAMKRREKKAQKEKDKMTTSPSSQHGGNGSLASGGGQDFVKKEILDLMTCEPPQHATIPLLPDEILAKCQARNIPSLTYNQLAVIYKLIWYQDGYEQPSEEDLRRIMSQPDENESQTDVSFRHITEITILTVQLIVEFAKGLPAFTKIPQEDQITLLKACSSEVMMLRMARRYDHSSDSIFFANNRSYTRDSYKMAGMADNIEDLLHFCRQMFSMKVDNVEYALLTAIVIFSDRPGLEKAQLVEAIQSYYIDTLRIYILNRHCGDSMSLVFYAKLLSILTELRTLGNQNAEMCFSLKLKNRKLPKFLEEIWDVHAIPPSVQSHLQITQEENERLERAERMRASVGGAITAGIDCDSASTSAAAAAAQHQPQPQPQPQPSSLTQNDSQHQTQPQLQPQLPPQLQGQLQPQLQPQLQTQLQPQIQPQPQLLPVSAPVPASVTAPGSLSAVSTSSEYMGGSAAIGPITPATTSSITAAVTASSTTSAVPMGNGVGVGVGVGGNVSMYANAQTAMALMGVALHSHQEQLIGGVAVKSEHSTTA
